Test results reported in PubChem BioAssay AID248 (DTP/NCI, 2004).
The list is a part of this screen's results and no random one: it is rich in T/C values a quarter to a half above the control, in often repeated tests (any T/C) and in doses without a T/C. Other doses and runs of a compound stand elsewhere. T/C gives the treated animals as a percentage of the vehicle group. Some doses have a count of surviving animals in place of a T/C: the source holds a T/C of zero for them, seemingly a mark for toxic or unscored doses. Some doses without a T/C left all or most animals alive at the check, yet need not have been tolerated: survival well below the control is almost never listed, so the zero probably covers shortened survival too. Survivors were counted at the toxicity check, usually on the fifth day, unless a day is given; later deaths do not show. Schedules are NCI's codes, taken here to give the interval after Q, in days (D) or hours (H), and the number of doses after X. Some doses were run more than once; the values are given in rising order. Some schedules carry Z or #; the key to these is not given. Where survival is the endpoint, this PubChem deposit counts one and a half times the control or more as active, and values a quarter to a half above the control carry no call in these data; other NCI protocols may use other cut-offs. Marks such as (2×) count equal records among those shown. Some T/C values are followed by the survivors on the day toxicity was checked, most often the fifth; without a count, all were alive then.

System: L1210 leukemia ip in BDF1 mice, survival T/C
Experiment: NCI In Vivo Anticancer Drug Screen. Data for tumor model L1210 Leukemia (intraperitoneal) in B6D2F1 (BDF1) mice
Details: T/C endpoint: mean survival time, higher T/C = longer survival
[1] = dose: 400.0 mg/kg/injection, schedule: Q04DX003 (ip), vehicle: Klucel (hydroxypropylcellulose) (HPC)
[2] = dose: 400.0 mg/kg/injection, schedule: Q01DX009 (ip), vehicle: Klucel (hydroxypropylcellulose) (HPC)
[3] = dose: 100.0 mg/kg/injection, schedule: Q04DX002 (ip), vehicle: saline
[4] = dose: 400.0 mg/kg/injection, schedule: Q01DX001 (ip), vehicle: other
[5] = dose: 400.0 mg/kg/injection, schedule: Q04DX002 (ip), vehicle: Klucel (hydroxypropylcellulose) (HPC)

O=C(CCN1CC1)Nc1ccc(NC(=O)CCN2CC2)cc1
T/C (dose: 4.4 mg/kg/injection, schedule: Q01DX009 (ip), vehicle: Klucel (hydroxypropylcellulose) (HPC)): 144 % of control
T/C (dose: 10.0 mg/kg/injection, schedule: Q01DX009 (ip), vehicle: Klucel (hydroxypropylcellulose) (HPC)): 140 % of control (2×)
T/C (dose: 15.0 mg/kg/injection, schedule: Q01DX009 (ip), vehicle: Klucel (hydroxypropylcellulose) (HPC)): 127 % of control
T/C (dose: 20.0 mg/kg/injection, schedule: Q04DX003 (ip), vehicle: Klucel (hydroxypropylcellulose) (HPC)): 136 and 148 % of control
survivor count (dose: 40.0 mg/kg/injection, schedule: Q01DX009 (ip), vehicle: Klucel (hydroxypropylcellulose) (HPC)): 1 of 6
survivor count (dose: 80.0 mg/kg/injection, schedule: Q04DX003 (ip), vehicle: Klucel (hydroxypropylcellulose) (HPC)): 6 of 6
survivor count (dose: 100.0 mg/kg/injection, schedule: Q04DX003 (ip), vehicle: Klucel (hydroxypropylcellulose) (HPC)): 5 of 6
survivor count (dose: 200.0 mg/kg/injection, schedule: Q04DX003 (ip), vehicle: Klucel (hydroxypropylcellulose) (HPC)): 5 of 6
survivor count [1]: 5 of 6

c1cc(N=NNc2cccc(C3=NCCN3)c2)cc(C2=NCCN2)c1
survivor count (dose: 62.0 mg/kg/injection, schedule: Q01DX015 (ip), vehicle: water): 1 of 6
survivor count (dose: 125.0 mg/kg/injection, schedule: Q01DX015 (ip), vehicle: water): 0 of 6
survivor count (dose: 250.0 mg/kg/injection, schedule: Q01DX015 (ip), vehicle: water): 0 of 6
survivor count (dose: 500.0 mg/kg/injection, schedule: Q01DX015 (ip), vehicle: water): 0 of 6

Cc1ccc(-n2c(O)c(C=N)c(=O)[nH]c2=O)cc1
survivor count (dose: 400.0 mg/kg/injection, schedule: Q01DX009 (ip), vehicle: saline with Tween-80): 5 of 6

CSc1ccc(/C=N/NC(N)=S)cc1
survivor count [2]: 6 of 6

OCc1cnc[nH]1
survivor count [3]: 3 of 3

Cc1cc(NC(=O)N(CCCl)N=O)c(C)cc1NC(=O)c1ccccc1
T/C (dose: 6.3 mg/kg/injection, schedule: Q01DX009 (ip), vehicle: carboxymethylcellulose (CMC)): 134 % of control
T/C (dose: 7.5 mg/kg/injection, schedule: Q01DX009 (ip), vehicle: carboxymethylcellulose (CMC)): 129 % of control
T/C (dose: 9.6 mg/kg/injection, schedule: Q01DX009 (ip), vehicle: other): 142 % of control
T/C (dose: 14.0 mg/kg/injection, schedule: Q01DX001 (ip), vehicle: carboxymethylcellulose (CMC)): 128 % of control
T/C (dose: 15.0 mg/kg/injection, schedule: Q01DX009 (ip), vehicle: carboxymethylcellulose (CMC)): 142 % of control
T/C (dose: 30.0 mg/kg/injection, schedule: Q01DX009 (ip), vehicle: carboxymethylcellulose (CMC)): 149 % of control [5 of 6 alive]
T/C (dose: 50.0 mg/kg/injection, schedule: Q01DX001 (ip), vehicle: carboxymethylcellulose (CMC)): 147 % of control
T/C (dose: 53.0 mg/kg/injection, schedule: Q01DX001 (ip), vehicle: carboxymethylcellulose (CMC)): 137 % of control
T/C (dose: 80.0 mg/kg/injection, schedule: Q01DX001 (ip), vehicle: carboxymethylcellulose (CMC)): 142 % of control
T/C (dose: 115.0 mg/kg/injection, schedule: Q01DX001 (ip), vehicle: carboxymethylcellulose (CMC)): 140 % of control
T/C (dose: 115.0 mg/kg/injection, schedule: Q01DX009 (ip), vehicle: carboxymethylcellulose (CMC)): 142 % of control [5 of 6 alive]
T/C (dose: 177.0 mg/kg/injection, schedule: Q01DX001 (ip), vehicle: carboxymethylcellulose (CMC)): 140 % of control
T/C (dose: 177.0 mg/kg/injection, schedule: Q01DX001 (ip), vehicle: other): 147 % of control
T/C (dose: 177.0 mg/kg/injection, schedule: Q01DX009 (ip), vehicle: carboxymethylcellulose (CMC)): 144 % of control
T/C (dose: 266.0 mg/kg/injection, schedule: Q01DX001 (ip), vehicle: carboxymethylcellulose (CMC)): 148 % of control
survivor count (dose: 266.0 mg/kg/injection, schedule: Q01DX009 (ip), vehicle: carboxymethylcellulose (CMC)): 6 of 6
survivor count [4]: 2 of 6

CCC1CCN(CC)CC1
survivor count (dose: 40.0 mg/kg/injection, schedule: Q01DX009 (ip), vehicle: saline): 1 of 6
survivor count [3]: 0 of 3 and 0 of 6
survivor count (dose: 200.0 mg/kg/injection, schedule: Q04DX002 (ip), vehicle: saline): 0 of 3 and 0 of 6
survivor count (dose: 400.0 mg/kg/injection, schedule: Q04DX002 (ip), vehicle: saline): 0 of 3 and 0 of 6

CCOC(=O)NC(=S)[S][Sb]([S]C(=S)NC(=O)OCC)[S]C(=S)Nc1ccc(S(=O)(=O)Nc2ccc(N=Nc3ccccc3)cc2)cc1
survivor count (dose: 200.0 mg/kg/injection, schedule: Q01DX001 (ip), vehicle: steroid suspending solution): 1 of 6

[C](#[C][Sn]([c]1ccccc1)([c]1ccccc1)[c]1ccccc1)[Sn]([c]1ccccc1)([c]1ccccc1)[c]1ccccc1
survivor count [3]: 3 of 3

CCCCCCCCCCCCCCCCOc1ccc(Cl)cc1
survivor count (dose: 200.0 mg/kg/injection, schedule: Q01DX001 (ip), vehicle: Klucel (hydroxypropylcellulose) (HPC)): 6 of 6

CC(C)(C)c1cc(/C=N/NC(=O)CCCCCCCCC(=O)N/N=C/c2cc(C(C)(C)C)c(O)c(C(C)(C)C)c2)cc(C(C)(C)C)c1O
survivor count (dose: 100.0 mg/kg/injection, schedule: Q01DX009 (ip), vehicle: Klucel (hydroxypropylcellulose) (HPC)): 6 of 6
survivor count [2]: 1 of 3 and 3 of 6

CC(=O)CC(=O)Nc1cccc(C)n1
survivor count (dose: 400.0 mg/kg/injection, schedule: Q01DX001 (ip), vehicle: saline): 3 of 6
survivor count [5]: 1 of 3

CC1OC(O[C@H]2C[C@](O)(C(C)O)Cc3c(O)c4c(c(O)c32)C(=O)c2c(O)cccc2C4=O)CC(NC=O)C1O (some centres undefined)
T/C (dose: 0.1 mg/kg/injection, schedule: Q01DX009 (ip), vehicle: saline): 126 % of control
T/C (dose: 0.2 mg/kg/injection, schedule: Q01DX009 (ip), vehicle: saline): 133 % of control
T/C (dose: 0.4 mg/kg/injection, schedule: Q01DX001 (ip), vehicle: saline): 138 % of control [5 of 6 alive]
T/C (dose: 0.4 mg/kg/injection, schedule: Q01DX009 (ip), vehicle: saline): 133 % of control
T/C (dose: 0.4 mg/kg/injection, schedule: Q03DX003 (ip), vehicle: saline): 140 % of control
survivor count (dose: 0.8 mg/kg/injection, schedule: Q01DX001 (ip), vehicle: saline): 2 of 6
T/C (dose: 0.8 mg/kg/injection, schedule: Q03DX003 (ip), vehicle: saline): 145 % of control
T/C (dose: 1.6 mg/kg/injection, schedule: Q01DX001 (ip), vehicle: saline): 143 % of control
T/C (dose: 1.6 mg/kg/injection, schedule: Q03DX003 (ip), vehicle: saline): 140 % of control

CCOc1ccc(NC(=O)c2c(Br)c(Br)c(Br)c(Br)c2C(=O)O)cc1
survivor count [2]: 4 of 6

CCOC(=O)Cc1cc(OC)c(OC)c(OC)c1
survivor count (dose: 400.0 mg/kg/injection, schedule: Q04DX003 (ip), vehicle: acetone): 0 of 6

O=C1C(Cl)=C(c2ccccc2)C(=O)C(Cl)=C1c1ccccc1
survivor count [4]: 1 of 6

CCCC(C)NCCOC(=O)c1ccc(N)cc1 (centres undefined)
survivor count (dose: 150.0 mg/kg/injection, schedule: Q01DX001 (ip), vehicle: saline): 2 of 6
survivor count (dose: 300.0 mg/kg/injection, schedule: Q01DX001 (ip), vehicle: saline): 0 of 6

C/C(=N/NC(=O)c1ccc(N)cc1)c1ccc(C)cc1
survivor count [5]: 0 of 3

CN1CCCC1c1cccnc1 (centres undefined)
survivor count (dose: 0.5 mg/kg/injection, schedule: Q01DX009 (ip), vehicle: saline): 6 of 6
survivor count (dose: 2.0 mg/kg/injection, schedule: Q01DX009 (ip), vehicle: saline): 1 of 6 and 6 of 6
survivor count (dose: 4.0 mg/kg/injection, schedule: Q01DX009 (ip), vehicle: saline): 0 of 6 and 1 of 6
survivor count (dose: 4.0 mg/kg/injection, schedule: Q01DX Z (ip), vehicle: saline): 6 of 6

CN(C)c1ccc(NC(=O)NCCCl)cc1
survivor count [1]: 6 of 6
